From paper PMC11425283
No constants are given. Whether binding was seen depends on the method and setting. Binding seen in cells or lysates may run through a third protein. For some assays here: A result given as binding can be weak or reduced; the word gives no strength. For some assays here: Where a sequence is shown, tags or fusion partners need not be part of it.

Amino acid sequences for entries named in this document (tags omitted). A change or cut given only in a name is not applied to a line headed by its entry.
UniProt P09958: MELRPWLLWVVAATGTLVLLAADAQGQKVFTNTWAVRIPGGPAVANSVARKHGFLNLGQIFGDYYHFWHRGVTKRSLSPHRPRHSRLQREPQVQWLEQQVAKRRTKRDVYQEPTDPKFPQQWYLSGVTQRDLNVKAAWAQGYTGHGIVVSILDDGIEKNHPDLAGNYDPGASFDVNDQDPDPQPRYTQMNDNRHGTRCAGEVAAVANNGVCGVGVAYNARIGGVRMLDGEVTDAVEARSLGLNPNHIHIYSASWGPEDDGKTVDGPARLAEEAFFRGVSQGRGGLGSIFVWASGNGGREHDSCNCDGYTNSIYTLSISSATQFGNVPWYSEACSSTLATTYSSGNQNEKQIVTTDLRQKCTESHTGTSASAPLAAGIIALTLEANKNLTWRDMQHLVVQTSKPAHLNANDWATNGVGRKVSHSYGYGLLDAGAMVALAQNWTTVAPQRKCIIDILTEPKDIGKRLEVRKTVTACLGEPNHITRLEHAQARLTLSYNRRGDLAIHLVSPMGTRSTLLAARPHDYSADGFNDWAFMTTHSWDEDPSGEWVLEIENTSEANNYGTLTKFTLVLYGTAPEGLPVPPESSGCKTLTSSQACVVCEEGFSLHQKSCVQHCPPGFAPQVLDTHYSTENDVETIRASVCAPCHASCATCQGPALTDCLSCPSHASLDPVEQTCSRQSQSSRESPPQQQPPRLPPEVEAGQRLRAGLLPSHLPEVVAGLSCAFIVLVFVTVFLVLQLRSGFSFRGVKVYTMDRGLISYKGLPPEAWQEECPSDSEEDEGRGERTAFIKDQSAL

Key:
USP32-3×Myc (human) = USP32-3×Myc (human) (UniProt Q8NFA0); test: co-IP; Myc-tagged USP32 co-expressed with FLAG-tagged furin in HEK293T; IP with anti-Myc; WB
3×HA-MARCHF8(M7R) = molecular target: T1, 3×HA-MARCHF8(M7R) (UniProt Q5T0T0); test: co-IP; HA-tagged MARCHF or USP32 (WT or mutant) co-expressed with furin (WT or mutant) in HEK293T; RIPA lysate; IP with anti-HA affinity gel overnight at 4 °C; WB
T1 sequence: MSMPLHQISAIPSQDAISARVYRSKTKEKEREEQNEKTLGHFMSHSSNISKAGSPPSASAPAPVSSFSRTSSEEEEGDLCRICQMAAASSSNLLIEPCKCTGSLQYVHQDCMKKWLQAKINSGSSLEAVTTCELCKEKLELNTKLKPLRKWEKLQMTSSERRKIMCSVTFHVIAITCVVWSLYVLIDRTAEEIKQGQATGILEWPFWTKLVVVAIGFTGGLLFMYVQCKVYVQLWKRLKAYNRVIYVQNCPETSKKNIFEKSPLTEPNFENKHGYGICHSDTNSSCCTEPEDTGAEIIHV

MARCHF2(M7R)-3×HA = molecular target: T2, MARCHF2(M7R)-3×HA (UniProt Q9P0N8); test: as above
T2 sequence: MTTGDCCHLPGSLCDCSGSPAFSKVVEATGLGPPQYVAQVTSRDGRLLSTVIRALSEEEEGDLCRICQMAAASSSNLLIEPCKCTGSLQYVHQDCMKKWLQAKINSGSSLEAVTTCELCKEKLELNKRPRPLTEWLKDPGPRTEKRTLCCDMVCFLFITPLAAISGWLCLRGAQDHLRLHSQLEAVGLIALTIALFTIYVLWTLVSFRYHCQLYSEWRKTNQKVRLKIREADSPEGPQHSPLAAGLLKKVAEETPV

MARCHF9(M7R)-3×HA = molecular target: T3, MARCHF9(M7R)-3×HA (UniProt Q86YJ5); test: as above
T3 sequence: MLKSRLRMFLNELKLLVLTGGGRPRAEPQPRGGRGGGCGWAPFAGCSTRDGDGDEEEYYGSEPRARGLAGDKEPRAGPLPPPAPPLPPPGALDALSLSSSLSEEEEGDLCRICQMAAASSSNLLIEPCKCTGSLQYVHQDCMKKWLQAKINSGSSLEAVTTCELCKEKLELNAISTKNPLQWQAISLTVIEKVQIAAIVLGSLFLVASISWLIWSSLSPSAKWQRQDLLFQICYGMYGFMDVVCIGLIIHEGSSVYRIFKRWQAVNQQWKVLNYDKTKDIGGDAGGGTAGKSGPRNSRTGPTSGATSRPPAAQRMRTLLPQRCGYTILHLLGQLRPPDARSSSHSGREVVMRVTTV

[1] = molecular target: USP32 Mut-1 (∆1–299), 3×HA (human) (UniProt Q8NFA0); test: as above
[2] = molecular target: USP32 Mut-2 (∆369–589), 3×HA (human) (UniProt Q8NFA0); test: as above
[3] = molecular target: USP32 Mut-3 (∆1–585), 3×HA (human) (UniProt Q8NFA0); test: as above
[4] = molecular target: T4, USP32 Mut-4 (∆585–1604), 3×HA (human) (UniProt Q8NFA0); test: as above
T4 sequence: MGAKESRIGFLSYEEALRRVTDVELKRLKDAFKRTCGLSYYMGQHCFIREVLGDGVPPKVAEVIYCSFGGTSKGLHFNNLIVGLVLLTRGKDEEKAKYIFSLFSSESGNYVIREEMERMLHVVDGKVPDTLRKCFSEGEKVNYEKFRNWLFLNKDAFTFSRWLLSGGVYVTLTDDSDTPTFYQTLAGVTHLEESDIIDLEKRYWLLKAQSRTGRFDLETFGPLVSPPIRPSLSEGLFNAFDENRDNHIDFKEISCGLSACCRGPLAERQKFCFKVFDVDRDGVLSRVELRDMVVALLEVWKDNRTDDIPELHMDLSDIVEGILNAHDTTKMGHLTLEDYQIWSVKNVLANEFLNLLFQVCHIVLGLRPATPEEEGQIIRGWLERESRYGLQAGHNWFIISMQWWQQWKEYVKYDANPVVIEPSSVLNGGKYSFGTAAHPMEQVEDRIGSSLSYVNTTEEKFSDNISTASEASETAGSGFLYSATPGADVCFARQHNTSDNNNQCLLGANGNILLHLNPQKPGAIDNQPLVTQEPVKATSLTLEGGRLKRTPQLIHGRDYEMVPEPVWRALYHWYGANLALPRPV

[5] = molecular target: T5, USP32 Mut-5 (∆734–1567), 3×HA (human) (UniProt Q8NFA0); test: as above
T5 sequence: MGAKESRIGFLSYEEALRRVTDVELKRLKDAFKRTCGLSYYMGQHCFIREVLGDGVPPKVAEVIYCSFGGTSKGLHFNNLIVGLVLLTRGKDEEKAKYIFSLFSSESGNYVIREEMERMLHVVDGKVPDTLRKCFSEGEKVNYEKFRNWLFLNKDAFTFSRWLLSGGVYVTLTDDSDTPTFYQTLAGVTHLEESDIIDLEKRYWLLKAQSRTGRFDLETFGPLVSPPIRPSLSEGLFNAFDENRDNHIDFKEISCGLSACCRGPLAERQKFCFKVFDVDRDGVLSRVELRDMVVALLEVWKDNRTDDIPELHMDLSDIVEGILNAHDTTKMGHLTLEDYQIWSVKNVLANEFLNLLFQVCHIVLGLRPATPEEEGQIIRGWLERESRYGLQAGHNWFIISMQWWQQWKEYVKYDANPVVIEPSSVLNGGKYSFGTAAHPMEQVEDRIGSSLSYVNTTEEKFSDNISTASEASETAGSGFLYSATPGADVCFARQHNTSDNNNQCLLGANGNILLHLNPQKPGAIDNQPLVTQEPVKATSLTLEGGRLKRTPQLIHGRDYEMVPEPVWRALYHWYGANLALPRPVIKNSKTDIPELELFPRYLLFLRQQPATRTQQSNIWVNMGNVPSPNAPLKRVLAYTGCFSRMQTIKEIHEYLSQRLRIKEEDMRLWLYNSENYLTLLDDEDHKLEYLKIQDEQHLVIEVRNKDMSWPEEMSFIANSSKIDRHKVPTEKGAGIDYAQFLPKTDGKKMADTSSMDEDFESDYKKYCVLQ

[6] = molecular target: USP32 Mut-6 (∆1568–1604), 3×HA (human) (UniProt Q8NFA0); test: as above
[7] = molecular target: USP32 with a 3×HA-tag (wild type) (human) (UniProt Q8NFA0); test: as above

binding (USP32-3×Myc (human)): binds | binding (3×HA-MARCHF8(M7R)): no binding | binding (MARCHF2(M7R)-3×HA): no binding | binding (MARCHF9(M7R)-3×HA): no binding | binding [1]: binds | binding [2]: binds | binding [3]: binds | binding [4]: no binding | binding [5]: no binding | binding [6]: binds | binding [7]: binds
Substance: furin (FLAG-tagged, wild type) (from UniProt P09958) (enzyme)
